# Data from article doi:10.1101/2023.04.14.536847.
# These are yes or no findings as the source states them, for the method shown. Some binding calls cover weakened binding; strength is not graded here. Sequences can lack the tags named with a protein.
# B1: DnaB, full-length, BACTH fusion (protein, UniProt Q1D285 1-456)
# chain: MENVHEFREGRKVHEDLAAERAVLGAVLADNTLIAAVGEVVHPEDFSSPAHAQIFEAMLKLDGQSRQVDHLTLAEELKVLGHLVSVGGPAYLMRLDQVVPIASNAVQYAQIVKDQAIRRRLAQAGREIQDLASQETGELEVLLDEAERKVFLLAEKKREGDLRPVSELMEHTLDLLDKMKAAATGITGLSTGYIDLDNQLTGLHAGELIILAARPGIGKTSFAMNIAVHAALKENKAVGIFSLEMPADQLLMRLLASTARVDMKKLRGGRLTPHDEEKFQEMAGALYNAPIYIDDSGGLSPFDLRAKARRVKQRDPRLSLIVIDYLQLMHQKGKVESRQLEVAEISRALKQLAKELEVPIIALSQLSRKVEDRKDGKPLLSDLRESGSIEQDADVVMFIHRETSDEAGPDGQPAQQSNTVIPVELIIAKQRNGPIGSIDLVFLAEYTRFESRSRSE
# Target: DnaB, full-length, BACTH fusion (Myxococcus xanthus) (UniProt Q1D285)
# Assay: two-hybrid
binder,measurement,value
B1,binding,binds
